Experimental findings from paper PMC5974431 are described below.

Numbering of substitutions follows the chain as printed. These are yes or no findings as the source states them, for the method shown. In cells and extracts the contact can be indirect. Binding can be weak; no strength is given. For some assays here: Tags and fused reporters may be left off the sequences shown.

Assay [1] deals with T1, flag-2×HA-TIN2L-S396A (human) (UniProt Q9BSI4).
T1 sequence: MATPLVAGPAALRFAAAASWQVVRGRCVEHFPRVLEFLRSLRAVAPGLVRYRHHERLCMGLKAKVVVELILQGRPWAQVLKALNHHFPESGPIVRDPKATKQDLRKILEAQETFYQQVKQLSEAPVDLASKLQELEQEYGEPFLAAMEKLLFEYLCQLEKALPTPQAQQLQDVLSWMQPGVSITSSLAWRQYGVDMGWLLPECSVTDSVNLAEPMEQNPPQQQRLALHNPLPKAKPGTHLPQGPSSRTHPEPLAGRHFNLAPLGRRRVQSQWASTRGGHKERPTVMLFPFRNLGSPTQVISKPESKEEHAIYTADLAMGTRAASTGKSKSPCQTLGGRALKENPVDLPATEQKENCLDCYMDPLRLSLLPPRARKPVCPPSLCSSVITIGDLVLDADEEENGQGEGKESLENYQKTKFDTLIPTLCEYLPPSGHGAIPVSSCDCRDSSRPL
Description: co-IP; HEK 293T cells cotransfected with 5 μg of each plasmid, lysed after 24 h (lysis buffer with 400 mM NaCl, 1% Triton X-100, 0.1% SDS, then an equal amount of water); supernatants incubated overnight at 4°C with anti-FLAG M2 magnetic beads or anti-Myc 9E10; immunoblot; the co-precipitated TRF1, TRF2 or TPP1 divided by the TIN2 precipitated and normalised to TIN2S. On the technique in general: In western blotting, separated proteins are transferred to a membrane and probed.

Assay [2] deals with T2, flag-2×HA-TIN2L-S396E (human) (UniProt Q9BSI4).
T2 sequence: T1 sequence with A396E
The description is as above.

The next assay addresses T3, flag-2×HA-TIN2S (human) (UniProt Q9BSI4).
T3 sequence: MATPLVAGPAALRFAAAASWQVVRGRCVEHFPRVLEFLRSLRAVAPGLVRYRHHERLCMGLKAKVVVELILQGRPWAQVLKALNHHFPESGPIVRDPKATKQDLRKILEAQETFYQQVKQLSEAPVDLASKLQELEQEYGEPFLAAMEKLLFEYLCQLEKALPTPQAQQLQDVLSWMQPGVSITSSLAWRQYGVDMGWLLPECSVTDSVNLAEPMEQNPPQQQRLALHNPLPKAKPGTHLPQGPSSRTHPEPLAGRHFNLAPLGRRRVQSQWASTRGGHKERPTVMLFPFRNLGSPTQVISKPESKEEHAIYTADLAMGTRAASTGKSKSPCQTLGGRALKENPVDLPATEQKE
The description is as above.

Assay [3] deals with T4, flag-2×HA-TIN2L-R282H+S396A (human) (UniProt Q9BSI4).
T4 sequence: T1 sequence with R282H
The description is as above.

The target of assay [4] is T5, flag-2×HA-TIN2L-R282H (human) (UniProt Q9BSI4).
T5 sequence (chain, R282H did not affect TIN2L phosphorylation (Phos-tag)): T1 sequence with R282H, A396S
The assay is described as above.

In assay [5] the target is T6, flag-2×HA-TIN2S-R282H (human) (UniProt Q9BSI4).
T6 sequence: T3 sequence with R282H
The description is as above.

A further assay concerns the target V1-TRF2. Description: split reporter; protein fragment complementation assay (PCA) with split Venus: TIN2L fused with V2 (C-terminal half), TRF2 with V1 (N-terminal half), cotransfected; fluorescence measured.

Consider myc-TRF2, for which the binding entry (in assay [1]; in assay [2]; with flag-2×HA-TIN2S (human); in assay [3]; in assay [4]; in assay [5]) was “binds” in each case.

Take myc-TRF2-F120A: in the assay with flag-2×HA-TIN2S (human), the binding result was “binds”.

B1: TIN2L-V2 (protein, UniProt Q9BSI4-1 1-451)
chain: T1 sequence with A396S
As for B1, the binding result with V1-TRF2 is recorded as “binds”.
